Reference: PubChem BioAssay AID1259424 (University of Nebraska Medical Center, 2018)
Aim: 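Find knockdowns that reproduce the expression shifts seen after KSR1 loss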 (primary screen). Cells: human HCT116 colon cancer cells. Knock-down reagent: siRNA pool against human genes, 50 nM. Measured: 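Six signature mRNAs by branched-DNA multiplex assay, scaled to two housekeeping genes and non-targeting median, log2; matched to mean KSR1 knockdown profile by Pearson correlation and euclidean distance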. Direction: mean correlation with KSR1 profile and KSR1 correlation: higher = expression change more like KSR1 knockdown; mean distance from KSR1 profile: higher = expression change less like KSR1 knockdown.
The whole screen tested about 14,000 reagents; shown is a random part of them. 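Higher correlation or smaller distance means closer resemblance to KSR1 loss; control wells, including KSR1 knockdowns, recur on many plates.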 Further read-outs or replicates are left out here. Not given: the time to read-out.

target gene,mean correlation with KSR1 profile,mean distance from KSR1 profile,"KSR1 correlation, replicate 1"
FAM204A (GeneID 63877),0.0856,3.42,0.126
DNMBP (GeneID 23268),-0.611,1.91,-0.455
HDAC2 (GeneID 3066),0.0368,1.63,0.198
PAN2 (GeneID 9924),-0.343,1.54,-0.204
NPFF (GeneID 8620),-0.227,2.4,-0.239
SLC5A3 (GeneID 6526),0.00814,1.74,0.141
SCRN1 (GeneID 9805),-0.194,2.58,-0.266
SLC26A3 (GeneID 1811),-0.141,1.83,-0.356
IL6R (GeneID 3570),-0.119,1.55,-0.316
ALDH6A1 (GeneID 4329),-0.268,1.84,-0.362
GJA8 (GeneID 2703),-0.496,2.67,-0.47
IFT22 (GeneID 64792),-0.184,3.04,-0.203
MMP28 (GeneID 79148),0.247,2.06,0.232
C1orf21 (GeneID 81563),0.115,2.46,-0.152
COL16A1 (GeneID 1307),0.167,1.58,0.161
RAD50 (GeneID 10111),0.0557,1.83,-0.146
UTP3 (GeneID 57050),0.458,6.61,0.257
SIRAL1 (GeneID 79607),0.756,1.35,0.747
DENND1B (GeneID 163486),-0.272,2.63,-0.278
GMPR2 (GeneID 51292),0.0291,2.02,0.174

Part of the list above, set out differently.
target gene	mean correlation with KSR1 profile	mean distance from KSR1 profile	KSR1 correlation, replicate 1
PAN2 (GeneID 9924)	-0.343	1.54	-0.204
NPFF (GeneID 8620)	-0.227	2.4	-0.239
SLC5A3 (GeneID 6526)	0.00814	1.74	0.141
